# According to PMC9126943 (Nature Communications, 2022):
# Key:
# [1] = general procedure: Fmoc solid-phase peptide synthesis; TentaGel HL NH2 with HMBA linker; HCTU/NMM; details: for crude mass / crude yield: whole synthesis; for crude yield: scale of the general procedure 30 mg resin per peptide
# [2] = peptide made by a vendor (peptide synthesis; TentaGel HL NH2 with HMBA linker; HCTU/NMM); details: whole synthesis, scale of the general procedure 30 mg resin per peptide
substance,measurement,setting,value
"PEPTIDE1{C.F.H.P.Y.C.S.[TTDS].[TTDS].S.R.G.[am]}$PEPTIDE1,PEPTIDE1,1:R3-6:R3$$$V2.0",crude mass,[1],17 mg
same,crude yield,[1],68%
FAM-5-ADAMTS4-specific peptide,final purity (method not given),[2],>95%
ADAMTS4-specific probe (Eu),step yield,[1]; late stage modification step,60% yield
ADAMTS4-specific peptide FAM-5,final purity (method not given),[2],>95%
DOTA-ADAMTS4-specific peptide,final purity (method not given),[2],>95%
ADAMTS4-specific peptide Cy5,final purity (method not given),[2],>95%
"PEPTIDE1{C.S.R.R.G.C.S.[TTDS].[TTDS].S.R.G.[am]}$PEPTIDE1,PEPTIDE1,1:R3-6:R3$$$V2.0",crude mass,[1],17 mg
same,crude yield,[1],71%

# For part of these data: One purity is given for all peptides; the source may state it once. For part of these data: Strings that start with PEPTIDE1 are HELM notation: dots part the residues, brackets hold end groups and non-standard residues.
